Source: article PMC10290081
Results are given in words; binding and its absence hold for the method and conditions named. For some assays here: Binding seen in cells or lysates may run through a third protein. Some results given as binding are weak or reduced against the parent protein; the word gives no strength.

By UniProt entry, the sequences of proteins in these tests, tags left out. Where a name states a change or a piece, a line headed by the entry shows the natural chain unless it says otherwise.
UniProt P61586: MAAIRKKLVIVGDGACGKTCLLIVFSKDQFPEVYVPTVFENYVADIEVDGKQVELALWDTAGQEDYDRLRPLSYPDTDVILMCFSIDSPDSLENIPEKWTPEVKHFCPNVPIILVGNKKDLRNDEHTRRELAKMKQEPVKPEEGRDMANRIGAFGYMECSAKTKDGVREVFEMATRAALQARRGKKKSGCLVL
UniProt Q9HBA0: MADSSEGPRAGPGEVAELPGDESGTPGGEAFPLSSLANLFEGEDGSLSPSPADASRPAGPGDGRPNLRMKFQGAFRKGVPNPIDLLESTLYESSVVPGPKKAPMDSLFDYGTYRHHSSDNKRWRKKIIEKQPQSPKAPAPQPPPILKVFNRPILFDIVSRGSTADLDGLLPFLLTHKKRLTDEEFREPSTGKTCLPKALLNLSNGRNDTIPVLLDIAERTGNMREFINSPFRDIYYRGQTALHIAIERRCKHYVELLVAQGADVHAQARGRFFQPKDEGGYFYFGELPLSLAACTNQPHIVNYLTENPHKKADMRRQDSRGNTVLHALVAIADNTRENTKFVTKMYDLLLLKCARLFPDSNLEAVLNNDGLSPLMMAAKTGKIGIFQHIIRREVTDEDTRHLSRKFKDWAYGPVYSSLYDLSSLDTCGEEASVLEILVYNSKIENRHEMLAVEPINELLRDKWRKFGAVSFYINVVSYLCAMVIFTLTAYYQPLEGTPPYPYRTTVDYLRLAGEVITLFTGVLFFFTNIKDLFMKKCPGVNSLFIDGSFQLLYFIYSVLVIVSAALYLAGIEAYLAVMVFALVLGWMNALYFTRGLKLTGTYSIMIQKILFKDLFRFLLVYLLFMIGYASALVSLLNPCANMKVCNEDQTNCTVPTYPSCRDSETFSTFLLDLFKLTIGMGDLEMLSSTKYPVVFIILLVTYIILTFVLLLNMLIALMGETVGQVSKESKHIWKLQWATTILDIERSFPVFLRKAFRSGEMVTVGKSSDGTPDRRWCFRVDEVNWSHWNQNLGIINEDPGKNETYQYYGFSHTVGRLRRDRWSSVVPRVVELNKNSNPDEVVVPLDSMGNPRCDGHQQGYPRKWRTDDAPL
UniProt P62745: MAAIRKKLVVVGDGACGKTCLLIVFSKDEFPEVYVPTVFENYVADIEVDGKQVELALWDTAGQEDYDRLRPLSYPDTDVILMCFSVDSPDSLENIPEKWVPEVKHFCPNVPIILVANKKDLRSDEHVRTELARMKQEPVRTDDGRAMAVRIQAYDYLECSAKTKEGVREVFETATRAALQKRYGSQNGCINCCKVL
UniProt P08134: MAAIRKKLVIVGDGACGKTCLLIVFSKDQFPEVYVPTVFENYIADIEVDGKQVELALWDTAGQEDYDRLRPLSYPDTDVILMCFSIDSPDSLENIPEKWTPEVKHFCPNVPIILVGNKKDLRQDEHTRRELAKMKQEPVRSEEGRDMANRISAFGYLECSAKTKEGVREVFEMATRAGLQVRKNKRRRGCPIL

Legend:
Myc-tagged RhoA D76A = Myc-tagged RhoA D76A (UniProt P61586); assay: co-IP; HEK293T cells transfected with TRPV4-GFP and RhoA-Myc (WT or mutant), lysed in IP Lysis Buffer (1% NP-40, 150 mM NaCl), antibody (mouse anti-Myc) on Protein G Dynabeads, 1 h at 4 C, western blot; also in the presence of GSK101
Myc-tagged RhoA D76L = Myc-tagged RhoA D76L (UniProt P61586); assay: as above
Myc-tagged RhoA E54H = Myc-tagged RhoA E54H (UniProt P61586); assay: as above
Myc-tagged WT RhoA = Myc-tagged WT RhoA (UniProt P61586); assay: as above
[1] = biological target: Homo sapiens full-length TRPV4 (hTRPV4), C-terminal FLAG-tag and 10x His-tag (human) (UniProt Q9HBA0); assay: co-purification (anti-FLAG resin, SEC) with western blot; FLAG-tagged TRPV4 overexpressed alone in HEK293S GnTI- cells, purified by anti-FLAG M2 resin (wash with 500 mM NaCl) and SEC; final purified samples blotted with RhoA-, RhoB- and RhoC-specific antibodies
[2] = biological target: Homo sapiens full-length TRPV4 (hTRPV4), C-terminal FLAG-tag and 10x His-tag (human) (UniProt Q9HBA0); assay: cryo-EM structure; single-particle cryo-EM of TRPV4 purified in detergent (LMNG/CHS/GDN, 20 mM Tris pH 8.0, 150 mM NaCl) with copurified endogenous Rho GTPase; ligand-free, with 20 uM GSK279, with 20 uM GSK101 + 2 mM GTPgammaS, with 40 uM 4alpha-PDD + 2 mM GTPgammaS; both purified

GFP-tagged WT TRPV4 (from UniProt Q9HBA0 1-871)
binding (Myc-tagged RhoA D76A): binds weakly
binding (Myc-tagged RhoA D76L): binds weakly
binding (Myc-tagged RhoA E54H): binds weakly
binding (Myc-tagged WT RhoA): binds

RhoA (endogenous Rho GTPase copurified with overexpressed TRPV4) (from UniProt P61586 1-193)
binding [1]: binds
binding [2]: binds

RhoB (endogenous, copurified with TRPV4) (from UniProt P62745 1-196)
binding [1]: binds

RhoC (endogenous, copurified with TRPV4) (from UniProt P08134 1-193)
binding [1]: binds
